In paper PMC10849765:
These are yes or no findings as the source states them, for the method shown. In cells and extracts the contact can be indirect. Some entries that bind do so weakly or less than the wild type. Values belong to the substance of their own block, whether it stands above or below them.

The chains behind the UniProt entries cited, without tags or fusion partners. Where a name states a change or a piece, a line headed by the entry shows the natural chain unless it says otherwise. A line that says so, or that is headed by a name, gives the form on record, which may keep a tag or linker. Residues count along the entry.
ARRB1-Δexon 13 (β-arrestin 1 isoform lacking exon 13) (P49407, form named): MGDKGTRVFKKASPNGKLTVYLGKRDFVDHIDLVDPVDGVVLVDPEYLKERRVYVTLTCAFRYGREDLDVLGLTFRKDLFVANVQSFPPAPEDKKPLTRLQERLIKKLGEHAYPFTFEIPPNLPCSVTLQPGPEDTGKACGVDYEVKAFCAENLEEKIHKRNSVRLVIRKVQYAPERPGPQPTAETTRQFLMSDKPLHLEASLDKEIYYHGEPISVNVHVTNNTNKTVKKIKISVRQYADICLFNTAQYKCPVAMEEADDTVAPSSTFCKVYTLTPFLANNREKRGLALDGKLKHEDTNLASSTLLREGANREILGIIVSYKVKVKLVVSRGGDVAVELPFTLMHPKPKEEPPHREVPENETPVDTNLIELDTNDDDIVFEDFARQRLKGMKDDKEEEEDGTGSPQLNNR
UniProt O00571: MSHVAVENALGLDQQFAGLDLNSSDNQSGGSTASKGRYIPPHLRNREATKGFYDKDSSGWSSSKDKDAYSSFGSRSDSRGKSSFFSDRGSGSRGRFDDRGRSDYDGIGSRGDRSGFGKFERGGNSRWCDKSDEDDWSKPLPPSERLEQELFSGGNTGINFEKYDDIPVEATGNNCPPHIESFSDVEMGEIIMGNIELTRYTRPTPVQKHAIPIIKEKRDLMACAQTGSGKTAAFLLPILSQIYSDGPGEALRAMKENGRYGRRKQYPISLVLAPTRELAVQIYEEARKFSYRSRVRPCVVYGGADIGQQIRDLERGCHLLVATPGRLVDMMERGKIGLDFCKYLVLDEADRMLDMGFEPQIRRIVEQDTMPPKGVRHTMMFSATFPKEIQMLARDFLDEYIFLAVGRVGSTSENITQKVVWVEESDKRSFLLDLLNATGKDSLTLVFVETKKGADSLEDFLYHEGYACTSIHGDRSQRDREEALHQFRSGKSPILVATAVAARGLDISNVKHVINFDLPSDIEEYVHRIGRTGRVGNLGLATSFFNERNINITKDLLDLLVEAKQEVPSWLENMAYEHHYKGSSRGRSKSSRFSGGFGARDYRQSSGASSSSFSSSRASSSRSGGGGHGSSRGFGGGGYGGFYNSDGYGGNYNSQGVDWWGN
tDDX3X-C of the exogenous co-IP in HEK293T cells: residues 125-662 of O00571
UniProt Q62167: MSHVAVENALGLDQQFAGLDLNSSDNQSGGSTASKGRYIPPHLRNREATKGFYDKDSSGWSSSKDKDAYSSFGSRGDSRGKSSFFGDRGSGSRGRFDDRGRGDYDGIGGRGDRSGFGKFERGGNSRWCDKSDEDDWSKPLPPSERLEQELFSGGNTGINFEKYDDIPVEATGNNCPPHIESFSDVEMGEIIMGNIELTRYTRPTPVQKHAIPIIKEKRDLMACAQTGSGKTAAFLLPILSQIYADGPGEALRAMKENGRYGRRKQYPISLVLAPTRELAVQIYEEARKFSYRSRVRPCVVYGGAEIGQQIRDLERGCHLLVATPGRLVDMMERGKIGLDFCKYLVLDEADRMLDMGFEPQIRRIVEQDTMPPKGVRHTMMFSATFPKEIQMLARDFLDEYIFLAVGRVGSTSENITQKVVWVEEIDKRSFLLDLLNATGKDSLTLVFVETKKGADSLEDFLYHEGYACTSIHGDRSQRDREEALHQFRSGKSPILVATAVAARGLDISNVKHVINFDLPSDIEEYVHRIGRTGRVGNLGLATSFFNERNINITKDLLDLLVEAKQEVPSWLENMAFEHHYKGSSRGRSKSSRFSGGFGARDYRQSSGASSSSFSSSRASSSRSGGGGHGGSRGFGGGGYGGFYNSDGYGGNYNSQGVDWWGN
UniProt P06733: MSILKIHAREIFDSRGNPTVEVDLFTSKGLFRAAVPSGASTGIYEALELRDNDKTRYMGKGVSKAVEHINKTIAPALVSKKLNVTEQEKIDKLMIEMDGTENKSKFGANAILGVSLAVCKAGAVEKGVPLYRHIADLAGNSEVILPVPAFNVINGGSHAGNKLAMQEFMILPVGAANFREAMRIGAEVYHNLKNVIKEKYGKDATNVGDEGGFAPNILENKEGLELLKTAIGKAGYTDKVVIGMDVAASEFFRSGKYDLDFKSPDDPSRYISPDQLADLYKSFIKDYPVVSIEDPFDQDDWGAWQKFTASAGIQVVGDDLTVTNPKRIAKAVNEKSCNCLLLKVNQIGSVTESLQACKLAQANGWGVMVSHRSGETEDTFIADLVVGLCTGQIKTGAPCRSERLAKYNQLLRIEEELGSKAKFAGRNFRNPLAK
UniProt Q07955: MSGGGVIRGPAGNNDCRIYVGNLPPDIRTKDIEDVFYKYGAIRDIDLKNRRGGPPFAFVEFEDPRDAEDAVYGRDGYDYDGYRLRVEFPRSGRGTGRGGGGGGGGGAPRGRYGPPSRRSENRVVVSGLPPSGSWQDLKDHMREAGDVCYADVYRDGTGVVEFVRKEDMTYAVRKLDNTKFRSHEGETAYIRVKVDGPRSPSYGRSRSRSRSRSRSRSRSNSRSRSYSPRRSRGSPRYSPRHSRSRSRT

Tests used:
[1] = biological target: T1, asparagine endopeptidase (AEP), endogenous in human tumor cells (human (endogenous in U87-MG, U251-MG, MDA-MB-231)) (UniProt Q99538); experiment: co-IP; endogenous co-IP in U87-MG, U251-MG and MDA-MB-231 cells that underwent hypoxia and nutrient deprivation
T1 sequence: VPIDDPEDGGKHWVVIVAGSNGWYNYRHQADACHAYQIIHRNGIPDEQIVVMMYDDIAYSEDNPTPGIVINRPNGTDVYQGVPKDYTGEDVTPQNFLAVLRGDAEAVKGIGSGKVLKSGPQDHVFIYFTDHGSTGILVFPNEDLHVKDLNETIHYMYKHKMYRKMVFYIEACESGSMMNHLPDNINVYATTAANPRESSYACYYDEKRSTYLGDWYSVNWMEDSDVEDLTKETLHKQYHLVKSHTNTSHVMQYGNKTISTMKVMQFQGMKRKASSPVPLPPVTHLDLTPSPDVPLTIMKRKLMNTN

[2] = biological target: T2, asparagine endopeptidase (AEP), human, re-expressed in AEP-KO mouse embryonic fibroblasts (human) (UniProt Q99538); experiment: co-IP; AEP or IgG immunoprecipitates of the AEP-re-expressing MEFs, immunoblot for DDX3X
T2 sequence: T1 sequence

[3] = biological target: ARRB1-Δexon 13 (β-arrestin 1 isoform lacking exon 13) (human) (UniProt P49407); experiment: co-IP; co-IP of ARRB1-Δexon 13, ARRB1-WT and ENO1
[4] = biological target: T3, AEP of the DDX3X domain co-IP assay (human) (UniProt Q99538); experiment: co-IP; domain assay: different DDX3X domains tested for interaction with AEP
T3 sequence: T1 sequence

[5] = biological target: tDDX3X-C expressed in U87-MG and MDA-MB-231 cells (co-IP) (human) (UniProt O00571); experiment: co-IP; co-IP from U87-MG and MDA-MB-231 cells expressing tDDX3X-C (1 × 10^7 cells), endogenous partners
[6] = biological target: YC156-tDDX3X-C (truncated DDX3X fused to a C-terminal YFP fragment) (human) (UniProt O00571); experiment: split reporter; BiFC with split YFP (YN155/YC156) in HEK293T cells, confocal microscopy 48 hours after transfection
[7] = biological target: tDDX3X-C of the exogenous co-IP in HEK293T cells (human) (UniProt O00571); experiment: co-IP; exogenous co-IP, HEK293T cells transfected with the indicated plasmids

binding [1]: binds
Substance: DEAD-box helicase 3 X-linked (DDX3X), endogenous in human tumor cells (from UniProt O00571 1-662)

binding [2]: binds
Substance: DEAD-box helicase 3 X-linked (DDX3X), endogenous in mouse embryonic fibroblasts (from UniProt Q62167 1-662)

binding [3]: binds
Substance: ENO1 (from UniProt P06733 1-434) (enzyme)

binding [4]: binds
Substance: N-terminus of DDX3X (amino acids 1-159) (from UniProt O00571 1-159) (domain or fragment)

binding [5]: binds
Substance: SRSF1, endogenous in U87-MG and MDA-MB-231 cells (from UniProt Q07955 1-248)

binding [6]: binds
Substance: YN155-SRSF1 (N-terminal YFP fragment fused to serine/arginine rich splicing factor 1) (from UniProt Q07955 1-248)

binding [7]: binds
Substance: serine/arginine rich splicing factor 1 (SRSF1) of the exogenous co-IP in HEK293T cells (from UniProt Q07955 1-248)
